Measured values reported in PubChem BioAssay AID662 (National Center for Advancing Translational Sciences (NCATS), 2007).
Some of the results follow. These are further read-outs of the screen, such as a control signal, another cell line or another target. No call is given for them. Compounds called inactive in the main read-out are mostly missing here. The note in brackets gives the kind of curve behind each potency; many fits are weak.

assay: Cell signaling CRE-BLA (Fsk stim); settings: CHO CRE-bla reporter (cAMP response element driving beta-lactamase), forskolin EC10, beta-lactamase ratio; measured here: 460 nm blue channel
Procedure, shortened: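 Modulation of forskolin signalling: compounds in titration series added with EC10 NKH 477 to CHO cells carrying a CRE-driven beta-lactamase reporter, 3 h, 37C. CCF4 FRET ratio (460/530 nm, ex 405 nm) gives %activity and AC50.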

| Compound | AC50 |
| --- | --- |
| CC(=O)c1cc2c(cc1NC(=O)CN1CCOCC1)OCO2 | 12.6 µM [rising, single point] |
| CCN(CC(=O)NC(=O)NCc1ccco1)Cc1nc2ccccc2c(=O)[nH]1 | 0.0501 µM [falling, full curve] |
| CCN(CC)S(=O)(=O)c1cccc(-c2nnc(SCCOc3ccccc3C)o2)c1 | 20 µM [falling, single point] |
| O=C(Nc1nc(-c2cc(Cl)sc2Cl)cs1)c1cccs1 | 3.16 µM [falling, full curve] |
| CC(=O)c1cccc(N(CC(=O)NCC2CCCO2)C(=O)CCC(=O)Nc2cc(C)on2)c1 (centres undefined) | 0.01 µM [falling, full curve, poor fit] |
| Nn1c(SCC(=O)Nc2ccc3c(c2)OCO3)nnc1C1CCCCC1 | 3.16 µM [rising, single point] |
| CCC(c1nnnn1C1CCCC1)N(Cc1cccs1)Cc1cc2cccc(C)c2[nH]c1=O (centres undefined) | 5.01 µM [rising, single point] |
| O=c1c2ccccc2nc(-c2ccccc2)n1CCCn1ccnc1 | 0.02 µM [falling, full curve, poor fit] |
| O=C(NCC1COc2ccccc2O1)C1CCN(S(=O)(=O)c2cccc3nsnc23)CC1 (centres undefined) | 1.26 µM [falling, partial curve] |
| Cc1c(/C=N/n2cnnc2)c2ccccc2n1CCOc1ccccc1 | 3.16 µM [rising, full curve] |
| CN(C)c1cc(-c2ccccc2)nc(N)n1 | 10 µM [rising, partial curve] |
| O=C(COc1ccccc1Cl)OCC(=O)N1CCN(S(=O)(=O)c2ccccc2)CC1 | 0.00398 µM [falling, full curve, poor fit] |
| Cc1ccc2nc(SCc3nnc(-c4cccs4)o3)[nH]c2c1 | 12.6 µM [rising, partial curve] |
| CCOC(=O)C1CCCCN1C(=O)CCc1c(C)nc2ncnn2c1C (centres undefined) | 25.1 µM [rising, single point] |
| CC(C)(C)OC(=O)NCCCCCc1nnc(SCC(=O)Nc2cccc(Cl)c2)o1 | 3.16 µM [falling, partial curve] |
| c1ccc(Cn2nnc3c(N4CCOCC4)ncnc32)cc1 | 10 µM [rising, partial curve] |
| Cc1cc(C(=O)CN2C(=O)C3CC=CCC3C2=O)c(C)n1-c1ccccc1 (centres undefined) | 10 µM [rising, partial curve] |
| COc1ccc(OC)c(NC(=O)Cn2cnc3c(cnn3-c3ccccc3)c2=O)c1 | 10 µM [rising, partial curve] |
| COCCn1c(N)c(C(=O)NCc2cccs2)c2nc3ccccc3nc21 | 15.8 µM [rising, partial curve] |
| COc1ccc2c(c1)c1nnc(SC)nc1n2C | 3.16 µM [rising, full curve] |
| CCCCOc1cc(C)nc(NCc2ccccc2)n1 | 10 µM [rising, single point] |
| CC(=Nc1ccc2c(c1)nc(CO)n2C)C1=C(O)CC(C)(C)CC1=O | 0.0398 µM [falling, partial curve] |
| CCOc1cc(C(=O)N2CCCC2)cc(OCC)c1OCC | 0.00316 µM [falling, full curve, poor fit] |

| Compound | AC50 |
| --- | --- |
| CCCCN=c1sc(C(=O)OC)cc(=O)n1CCCC | 20 µM [falling, partial curve] |
| Cc1cc(C)nc(SCc2nc3ccccc3n2C)n1 | 10 µM [rising, partial curve] |
| COc1ccc(CCNc2oc(-c3ccccc3OC)nc2C#N)cc1 | 12.6 µM [rising, partial curve] |
| Cc1cc(C)nc(-n2nc(C)cc2NC(=O)COC(=O)CCC(=O)c2cccs2)n1 | 10 µM [rising, partial curve] |
| COCCn1c(=O)c(-c2ccc(OC)cc2)nc2cnc(Oc3ccccc3)nc21 | 12.6 µM [rising, partial curve] |
| CC1Cc2ccccc2N1C(=O)CSc1nnc2sc3ccccc3n12 (centres undefined) | 20 µM [rising, single point] |
| O=C(NCCCN1CCCC1=O)c1nnc(Cc2c(F)cccc2Cl)o1 | 10 µM [falling, partial curve, poor fit] |
| Cc1ccc(N2CCN(CCC(=O)O)CC2)cc1 | 5.01 µM [rising, partial curve] |
| Cc1cc(-c2ccccc2)c(C#N)c(N)n1 | 10 µM [rising, partial curve] |
| O=c1c(-c2ccc(F)cc2)nc2cncnc2n1Cc1ccc(F)cc1 | 10 µM [rising, partial curve] |
| CCc1nnc(NC(=O)C2CCN(c3nccc(C)n3)CC2)s1 | 25.1 µM [rising, single point] |
| Cc1cc(-c2ccccc2)nn1-c1nc2c(c(=O)[nH]c(=O)n2C)n1C | 12.6 µM [rising, partial curve] |
| CCN1CCN(C(=O)c2cn(CCOC)c(=O)c3c2c2ccccc2n3C)CC1 | 0.0251 µM [falling, full curve, poor fit] |
| COc1ccc(-c2nc3nc(C)c(Cc4ccccc4)c(=O)n3[nH]2)cc1 | 25.1 µM [rising, single point] |
| COc1ccc(-c2nc3cnc(OC)nc3n(Cc3cccs3)c2=O)cc1 | 10 µM [rising, partial curve] |
| O=c1cccc(-c2ccc(Br)cc2)o1 | 0.251 µM [rising, full curve] |
| Cc1onc(-c2ccccc2)c1C(=O)Nc1ccncc1 | 1.58 µM [falling, partial curve] |
| Cc1cc2nnc(SC(C)C#N)n2c2ccccc12 (centres undefined) | 25.1 µM [rising, single point] |
| COC(=O)[C@@H](NC(=O)NCc1cccc(OC)c1)C(C)C | 3.98 µM [falling, full curve, poor fit] |
| CCNc1ncc2nc(CCc3ccccc3)c(=O)n(-c3ccc(OC)cc3)c2n1 | 15.8 µM [rising, partial curve] |
| COC(=O)CN(c1ccc(OC)cc1)S(=O)(=O)c1c(C)noc1C | 0.251 µM [falling, full curve] |
| CCN(CC)S(=O)(=O)c1cccc(-c2nc3n(n2)Cc2ccccc2-3)c1 | 2.51 µM [rising, full curve] |
| COc1ccc(-c2nc3cnc(N4CCN(C)CC4)nc3n(C)c2=O)cc1 | 6.31 µM [rising, partial curve] |

Ordered by heavy-atom count (smallest number first): some entries from above

| Compound | AC50 |
| --- | --- |
| COC(=O)CN(c1ccc(OC)cc1)S(=O)(=O)c1c(C)noc1C | 0.251 µM [falling, full curve] |
| O=c1c2ccccc2nc(-c2ccccc2)n1CCCn1ccnc1 | 0.02 µM [falling, full curve, poor fit] |
| O=C(NCCCN1CCCC1=O)c1nnc(Cc2c(F)cccc2Cl)o1 | 10 µM [falling, partial curve, poor fit] |
| CCN(CC)S(=O)(=O)c1cccc(-c2nnc(SCCOc3ccccc3C)o2)c1 | 20 µM [falling, single point] |

Following part

| Compound | AC50 |
| --- | --- |
| COc1ccc2nc(SCC(N)=O)[nH]c2c1 | 0.00316 µM [falling, full curve, poor fit] |
| Cc1ccc2nc(NCCO)nc(-c3ccccc3)c2c1 | 12.6 µM [rising, partial curve] |
| O=C(COc1ncnc2sccc12)Nc1ccc2c(c1)OCCO2 | 3.16 µM [falling, single point] |
| COc1ccc(S(=O)(=O)N2CCCC2C(=O)Nc2nnc(-c3cccnc3)s2)cc1 (centres undefined) | 0.316 µM [falling, partial curve, poor fit] |
| CCCN(CCC)c1nc2ccccc2nc1C(C#N)C(=O)OCCOC (centres undefined) | 10 µM [rising, partial curve] |
| Cc1ccccc1-c1nc(CS(=O)(=O)CC(=O)N2CCc3ccccc3C2)c(C)o1 | 12.6 µM [falling, partial curve] |
| C=CCOc1ccc(/C(O)=C2\C(=O)C(=O)N(CCCOC)C2c2ccncc2)cc1 (centres undefined) | 5.01 µM [falling, single point] |
| CCOC(=O)c1sc(/N=C/N(C)C)c(C(=O)OCC)c1C | 12.6 µM [rising, partial curve] |
| Cc1ccc(S(=O)(=O)N2CCOCC2)cc1C(=O)Nc1ccc(-c2cn3ccsc3n2)cc1 | 0.158 µM [falling, full curve, poor fit] |
| CS(=O)(=O)Nc1cccc(-c2ccc3ncnc(NC4CCNCC4)c3c2)c1 | 3.16 µM [rising, single point] |
| COc1cc(Nc2cc(C)nc3ncnn23)cc(OC)c1OC | 10 µM [rising, single point] |
| COCCn1c(=O)c(-c2ccc(Cl)cc2)nc2cnc(OC)nc21 | 12.6 µM [rising, partial curve] |
| CC(Cc1ccccc1)N/C=C1/CC(=O)NC1=O (centres undefined) | 0.631 µM [rising, single point] |
| O=C(O)c1cc(C(=O)O)c(-c2ccccc2)c(C(=O)O)c1 | 0.0251 µM [falling, full curve, poor fit] |
| CCOC(=O)N1CCN(Cc2nc3c(c(=O)n(C)c(=O)n3C)n2Cc2ccccc2C)CC1 | 5.01 µM [falling, single point] |
| CCn1cc(C(=O)NCCC2=CCCCC2)c(=O)c2cc(S(=O)(=O)N(C)C)ccc21 | 2.51 µM [rising, partial curve] |
| Cc1ccc(C)c(Cn2nnc3c(=O)[nH]c(C4CCCN(C(=O)C5CCC5)C4)nc32)c1 (centres undefined) | 10 µM [rising, partial curve] |
| CC(=O)C(C)Oc1ccc2c3c(c(=O)oc2c1)CCCCC3 (centres undefined) | 5.01 µM [rising, partial curve] |
| CCS(=O)(=O)Nc1cc(-c2nc3cccnc3s2)ccc1C | 10 µM [rising, partial curve] |
| COc1ccc(C)cc1-n1nnnc1SCC(=O)c1cc(C)n(Cc2ccco2)c1C | 10 µM [falling, partial curve] |
| C/C=C/C=C/C=O | 31.6 µM [falling, partial curve, poor fit] |
| COC(=O)c1ccc(CSc2nc3ccccc3c(=O)n2-c2cccc(OC)c2)o1 | 3.98 µM [rising, full curve] |
| COc1ccc(-c2nnc3sc(-c4ccco4)nn23)cc1OC | 15.8 µM [falling, partial curve, poor fit] |
